The list shows a part of the results.

In the test the test system is T1, CTL2-GFP (C. trachomatis L2/434/Bu, GFP-expressing).
T1 construct: L2/434/Bu, GFP-expressing
The arrangement: species or system HeLa; Intracellular C. trachomatis growth in HeLa cells, bulk GFP fluorescence relative to DMSO. The note with it: bulk GFP, single well; 28.5 h, 10 µM; inhibitor.
For the compound `O=C(O)CC1OC(=O)c2cc3c(cc21)C(=O)OC3CC(=O)O` (stereo not drawn) [CBK262928], the “% of control remaining” value worked out at 100%.

For the compound `O=S(=O)(Nc1ccc(-c2csnn2)cc1)c1ccc(F)cc1` [CBK050482], the “% of control remaining” value is 103.368%.

For the compound `Cn1nccc1C(=O)N1CCCC(c2cc3cccnc3[nH]2)C1` (stereo not drawn) [CBK284929], the “% of control remaining” value amounted to 125.684%.

In the case of `Cc1ccc(S(=O)(=O)Nc2ccc(Nc3cc(-c4cccc5oc6ccccc6c45)ncn3)cc2)cc1` [CBK090977], the “% of control remaining” value is 187.351%.

Turning to `CC(C)Nc1nc2cc(Cl)c(Cl)cc2nc1Sc1cccc(O)c1` [CBK093732], the “% of control remaining” value is 37.6945%.

Regarding `FC(F)(F)c1ccc(CNc2nccnc2-c2cccs2)cc1` [CBK036834], the “% of control remaining” value was 148.281%.

Consider `CCN1CC2(CCN(CCCN(C)C)CC2)c2ccccc21` [CBK136988], for which the “% of control remaining” value worked out at 105.609%.

`COc1ccccc1CCCNC(=O)c1ccc2nc(C)[nH]c2c1` [CBK283258]: the “% of control remaining” value worked out at 114.162%.

With `COc1ccc(C(=O)OC(C)(C)C)c(-c2cncc(NC3CCC(N)CC3)n2)c1` (stereo not drawn) [CBK037922], the “% of control remaining” value is 106.892%.

Take `CS(=O)(=O)c1ccc(-c2nccnc2N[C@@H]2CCN(Cc3ccccc3)C2)cc1` [CBK037667]: the “% of control remaining” value was 96.1438%.

Regarding `CN(CC(=O)N1CCC[C@@H]2[C@H]1C/C=C/Cc1ccccc1OCC(=O)N2C)Cc1ccccn1` [CBK292078], the “% of control remaining” value came out at 143.906%.

Take `O=C(NC1CCCCC1)N1C[C@@H]2C[C@H](C1)c1ccc(-c3cccnc3)c(=O)n1C2` [CBK289183]: the “% of control remaining” value was found to be 141.137%.

Turning to `Cc1ccc(NS(=O)(=O)c2cc(C(=O)Nc3cccc(N(C)S(C)(=O)=O)c3)ccc2C)c(C)c1` [CBK268220], the “% of control remaining” value is on record as 116.324%.

`Cc1cn(CC(=O)N2CCC3(CCN(Cc4ccccc4)C3)C2)c(=O)[nH]c1=O` (stereo not drawn) [CBK136840]: the “% of control remaining” value was found to be 104.015%.

As to `Nc1cccc(Oc2ccc3c(c2)C(=O)N(CCC(=O)O)C3=O)c1` [CBK287186], the “% of control remaining” value is listed as 142.581%.

Consider `COc1ccc(CNC(=O)[C@H]2C=CCN2C(=O)C2CC2)cc1` [CBK282326], for which the “% of control remaining” value is reported as 88.0372%.

As to `Cc1cc(NC(=O)Cn2cc(Br)cn2)no1` [CBK305706], the “% of control remaining” value was 94.4174%.

Regarding `Cn1c(=O)n(C)c2cc(S(=O)(=O)Nc3ccc(Cl)c(C(=O)O)c3)ccc21` [CBK299841], the “% of control remaining” value is given as 129.977%.

Consider `Cc1cccc(-c2ncc(NC(=O)c3ccccn3)nc2-c2ccc(N)cc2)c1` [CBK036694], for which the “% of control remaining” value is recorded as 192.804%.

On to `CN1CCN(c2nc(-c3cccc(F)c3)cnc2N)CC1` [CBK063433], for which the “% of control remaining” value is recorded as 161.629%.

Turning to `O=C(O)c1ccc(NC(=O)c2cn(-c3ccccc3)nc2-c2ccccc2)cc1` [CBK296120], the “% of control remaining” value amounted to 129.075%.

The values above are taken from article PMC12040169 (PLOS Biology, 2025).
